Reference: paper PMC13336771
Results are given in words; binding and its absence hold for the method and conditions named. In cells and extracts the contact can be indirect. Some results given as binding are weak or reduced against the parent protein; the word gives no strength.

Chains of the proteins cited; added tags and fusions are not shown. Lines headed by an entry give the natural chain unless they say otherwise; changes in a name come on top.
UniProt P08034: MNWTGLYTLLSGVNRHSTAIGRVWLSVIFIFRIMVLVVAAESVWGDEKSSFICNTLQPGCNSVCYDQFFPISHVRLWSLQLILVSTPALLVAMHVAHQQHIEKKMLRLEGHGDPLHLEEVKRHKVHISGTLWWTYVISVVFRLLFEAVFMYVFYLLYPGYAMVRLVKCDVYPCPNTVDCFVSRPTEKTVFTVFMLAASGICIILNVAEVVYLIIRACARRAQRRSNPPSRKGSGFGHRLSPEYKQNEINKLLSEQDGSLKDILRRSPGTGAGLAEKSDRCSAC

Biological target: Connexin32 wild type (Cx32^WT), tagged with Clover or mRuby2 (UniProt P08034)
Assay: FRET or BRET; acceptor depletion FRET; Clover donor and mRuby2 acceptor fused to the connexins; Clover fluorescence imaged before and after bleaching of mRuby2; dependence of FRET efficiency on acceptor level and donor to acceptor ratio

binding	Substance
binds	Connexin32 wild type (Cx32^WT), tagged with Clover or mRuby2 (from UniProt P08034 1-283)
binds	Cx32^DN, dominant negative Connexin32 subunit (K124R, K104A), tagged with Clover or mRuby2 (from UniProt P08034 1-283)
